Measured values as given in publication PMC7893028.
No constants are given. Whether binding was seen depends on the method and setting. In cells and extracts the contact can be indirect. For part of these data: Binding calls can cover weak binding; strength is not graded here. Sequences can lack the tags named with a protein.

How the values were obtained:
Assay in all cases: co-IP; 293T cells co-transfected with HA-CLEC18A or HA-CLEC18A(S339R) and Flag-TLR3 (full-length or deletion mutants), 48 h; lysates precipitated with anti-Flag mAb Sepharose beads, blot with anti-HA and anti-Flag; isotype mAb beads as control
[1] = biological target: Flag-tagged human TLR3ΔLRR1–3 (TLR3 without 1–3 LRR repeats) (human)
[2] = biological target: Flag-tagged human TLR3 deletion mutant without leucine-rich repeat (LRR) domain (TLR3ΔLRR) (human)
[3] = biological target: Flag-tagged human TLR3ΔLRR19–22 (TLR3 without 19–22 LRR repeats) (human)

| Binder | binding [1] | binding [2] | binding [3] |
| --- | --- | --- | --- |
| HA-tagged human CLEC18A (pMACS.Kk-HA(C)-hCLEC18A) (protein, UniProt A5D8T8 27-446) EVWPPQLQEQAPMAGALNRKESFLLLSLHNRLRSWVQPPAADMRRLDWSDSLAQLAQARAALCGTPTPSLASGLWRTLQVGWNMQLLPAGLVSFVEVVSLWFAEGQRYSHAAGECARNATCTHYTQLVWATSSQLGCGRHLCSAGQAAIEAFVCAYSPRGNWEVNGKTIVPYKKGAWCSLCTASVSGCFKAWDHAGGLCEVPRNPCRMSCQNHGRLNISTCHCHCPPGYTGRYCQVRCSLQCVHGRFREEECSCVCDIGYGGAQCATKVHFPFHTCDLRIDGDCFMVSSEADTYYRARMKCQRKGGVLAQIKSQKVQDILAFYLGRLETTNEVIDSDFETRNFWIGLTYKTAKDSFRWATGEHQAFTSFAFGQPDNHGFGNCVELQASAAFNWNDQRCKTRNRYICQFAQEHISRWGPGS | binds | no binding | binds |
| HA-tagged human CLEC18A(S339R) (pMACS.Kk-HA(C)-hCLEC18A(S339R)) (protein, UniProt A5D8T8 27-446) EVWPPQLQEQAPMAGALNRKESFLLLSLHNRLRSWVQPPAADMRRLDWSDSLAQLAQARAALCGTPTPSLASGLWRTLQVGWNMQLLPAGLVSFVEVVSLWFAEGQRYSHAAGECARNATCTHYTQLVWATSSQLGCGRHLCSAGQAAIEAFVCAYSPRGNWEVNGKTIVPYKKGAWCSLCTASVSGCFKAWDHAGGLCEVPRNPCRMSCQNHGRLNISTCHCHCPPGYTGRYCQVRCSLQCVHGRFREEECSCVCDIGYGGAQCATKVHFPFHTCDLRIDGDCFMVSSEADTYYRARMKCQRKGGVLAQIKRQKVQDILAFYLGRLETTNEVIDSDFETRNFWIGLTYKTAKDSFRWATGEHQAFTSFAFGQPDNHGFGNCVELQASAAFNWNDQRCKTRNRYICQFAQEHISRWGPGS | binds | no binding | binds |
